Screen size: about 360,000 compounds; about 7,500 (2.1%) were called active. Inconclusive means that the source gave no clear call. Such entries were picked first, then a sample of the others. Calls follow the shape of the dose curve; as a rule, active = well fitted inhibition curve with a large enough effect; inconclusive = small, poorly fitted or top-dose-only effect, or effect the other way; inactive = flat fitted curve, though single readings scatter. Potencies of inconclusive entries are doubtful fits and often do not repeat.
Test: Nrf2 qHTS screen for inhibitors; also: nearly all actives have a fitted effect of over 60% in size
Details: A549 ARE-Fluc reporter, luciferase luminescence, 18-24 h; activity change, negative = inhibition: at 46 µM (top of the series)
Summary of the method: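 Quantitative HTS in A549 cells stably bearing an antioxidant response element-firefly luciferase construct. Inhibition of Nrf2-driven transcription was scored by luminescence after 18-24 h of compound exposure at 37 °C.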
% is scaled to controls: 0 for no effect and ±100 for the full control effect; potency is read from the fitted curve at half-maximal effect.

| Structure (SMILES) | Potency | activity change, negative = inhibition |
| --- | --- | --- |
| Cn1c(SCC(=O)CC(=O)Nc2ccccc2)nnc1-c1ccc(O)cc1 | inconclusive: 32.6 µM [activator, single point] | – |
| COc1cccc(C2c3c(ncn(-c4ccncc4)c3=N)Oc3ccc4ccccc4c32)c1 (configuration not stated) | – | inactive: 15.6% |
| CC(=O)N(C1=C(N)C(=O)c2ccccc2C1=O)C(C)C | inconclusive: 4.11 µM [falling, partial curve, poor fit] | – |
| O=C(Nc1ccccc1)C1=C[C@@H](c2csc3ccccc23)C[C@@H](OCc2ccc(CO)cc2)O1 | active: 16.4 µM | – |
| CCc1ccc2c(c1)/C(=C/C(=O)c1cccs1)C(=O)N2 | – | inactive: -11.8% |
| Cc1ccc(NC(=S)N/N=C/c2ccc(Cl)c([N+](=O)[O-])c2)cc1 | – | inactive: 5.35% |
| C=CCn1c(SCC(=O)CC(=O)OCC)nc2cc(C(=O)N3CCC(C(N)=O)CC3)ccc2c1=O | inconclusive: 29.1 µM [activator, single point] | – |
| Cc1ccc2nc(NC(=O)C3CCCN(S(=O)(=O)c4cccnc4)C3)sc2c1 (configuration not stated) | inconclusive: 29.1 µM [falling, single point] | – |
| CCN1C(=O)[C@H]2[C@@H](c3ccc(-c4cccc(Cl)c4)c(OC)c3)N3CCCC[C@@]3(C(=O)OC)[C@H]2C1=O | inconclusive: 20.6 µM [falling, single point] | – |
| CC(=O)c1c(Nc2ccc3c(c2)OCCO3)oc(C)cc1=O | inconclusive: 18.4 µM [activator, partial curve, poor fit] | – |
| Cc1ccc2sc(NC(=O)C3CC3)nc2c1C | inconclusive: 29.1 µM [falling, single point] | – |
| COc1cccc(-c2noc(-c3cccs3)n2)c1 | inconclusive: 11.6 µM [activator, partial curve] | – |
| Cc1cccc(C2Nc3ccccc3C(=O)N2CCc2ccccc2)n1 (configuration not stated) | – | inactive: 19% |
| CCCCC(NC(=O)CCc1c(C)c2cc3c4c(oc3c(C)c2oc1=O)CCCC4)C(=O)O (configuration not stated) | inconclusive: 7.31 µM [falling, partial curve, poor fit] | – |
| Nc1ccc(C(=O)OCCCc2nc3ccccc3[nH]2)cc1 | inconclusive: 23.1 µM [falling, single point] | – |
| Cc1ccc(NC(=O)CN2C(=O)NC3(CCCC3)C2=O)c(Cl)c1 | – | inactive: 37.7% |
| CC(C)N(Cc1ccccc1)C(=O)CN1C(=O)NC2(CCCc3ccccc32)C1=O (configuration not stated) | inconclusive: 16.4 µM [falling, partial curve, poor fit] | – |
| CCCN1CCN(c2cc3c(cc2F)c(=O)c(S(=O)(=O)c2ccc(CC)cc2)cn3CC)CC1 | inconclusive: 29.1 µM [activator, single point] | – |
| COc1cc(OC)c2c(-c3cccc(-c4sccc4C(C)=O)c3)cc(=O)oc2c1 | inconclusive: 29.1 µM [falling, single point] | – |
| O=C1NCCc2c1[nH]c1c(Cl)ccc(Cl)c21 | inconclusive: 11.2 µM [falling, partial curve] | – |
| CCOC(=O)C1(CCOc2ccccc2)CCN(Cc2cccn2-c2cccnc2)CC1 | inconclusive: 20.6 µM [falling, single point] | – |

| Structure (SMILES) | Potency | activity change, negative = inhibition |
| --- | --- | --- |
| CCC(=O)Nc1cc(-c2cc3ccccc3oc2=O)ccc1OC | inconclusive: 1.84 µM [activator, full curve, poor fit] | – |
| Cc1ccc(Cn2ccsc2=NC(=O)COC(=O)c2ccc(NC(=O)CC#N)cc2)cc1 | active: 23.1 µM | – |
| O=C(C[C@@H]1C/C=C\CC[C@@H](Cc2ccc(F)cc2)C(=O)OC[C@@H]2CCCN2C1=O)N[C@H](CO)Cc1ccccc1 | inconclusive: 29.1 µM [falling, single point] | – |
| CCc1nc(Nc2ccc(NC(C)=O)cc2)c2oc3ccccc3c2n1 | – | inactive: -11.3% |
| O=C(CN1CCN(Cc2ccc(Cl)cc2)CC1)N/N=C/c1cccc(F)c1 | inconclusive: 23.1 µM [falling, single point] | – |
| CC1CCCCN1S(=O)(=O)CCNC(=O)c1ccccc1 (configuration not stated) | – | inactive: 0.728% |
| Cc1cccc(N(Cc2cc3ccccc3[nH]c2=O)C(=O)c2cccc(Cl)c2)c1 | – | inactive: -3.23% |
| O=C(Nc1ccc2nccnc2c1)c1cnccn1 | inconclusive: 5.8 µM [activator, single point] | – |
| O=C(O)CCCCN1C(=O)/C(=C\c2ccc(OCc3ccccc3)c(OCc3ccccc3)c2)SC1=S | inconclusive: 8.2 µM [falling, single point] | – |
| CCCn1c(=N)n(CC(O)COc2ccccc2OC)c2ccccc21 (configuration not stated) | – | inactive: 4.39% |
| O=C(O)c1ccc2c(c1)C1C=CCC1C(c1cc3c(cc1Br)OCO3)N2 (configuration not stated) | inconclusive: 16.4 µM [falling, partial curve, poor fit] | – |
| Clc1ccc2nc3c4ccccc4cnn3c2c1 | inconclusive: 20.6 µM [activator, partial curve] | – |
| N/C(Cc1ccc([N+](=O)[O-])cc1)=N\OC(=O)c1ccccc1F | inconclusive: 16.4 µM [activator, single point] | – |
| COc1ccc(-c2noc(N3CCC(C(=O)N(C)c4ccccc4)CC3)n2)cc1 | inconclusive: 23.1 µM [falling, partial curve, poor fit] | – |
| Cc1nn(Cc2ccccc2)c(Cl)c1/C=N/NC(=O)CNc1cccc(C(F)(F)F)c1 | inconclusive: 20.6 µM [falling, single point] | – |
| CN(Cc1ccccc1)C(=O)c1cccc(NC(=O)Cc2cccc(NC(=O)C3CCN(C(=O)C4CCC4)CC3)c2)c1 | – | inactive: 7.69% |
| O=C1Nc2ccccc2N(O)N1c1cc(-c2ccccc2Cl)no1 | inconclusive: 29.1 µM [falling, single point] | – |
| CN(C)c1ccc(NC(=S)NC23CC4CC(CC(C4)C2)C3)cc1 | inconclusive: 1.64 µM [activator, full curve] | – |
| COC(=O)c1ccc(N2CCOCC2)c(F)c1 | inconclusive: 29.1 µM [activator, single point] | – |
| C=CCC[C@@H](Cc1ccc(F)cc1)C(=O)OC[C@@H](Cc1c[nH]c2ccccc12)NC(=O)[C@H](CC=C)CC(=O)NCCO | inconclusive: 29.1 µM [falling, single point] | – |
| CC1(C)Cc2c(c(=S)nc(-c3ccccc3)n2CCOCCO)CO1 | inconclusive: 5.17 µM [activator, full curve] | – |

Taken from above.
Value of COc1ccc(-c2noc(N3CCC(C(=O)N(C)c4ccccc4)CC3)n2)cc1 under Potency: inconclusive: 23.1 µM [falling, partial curve, poor fit]
Value of Cc1nn(Cc2ccccc2)c(Cl)c1/C=N/NC(=O)CNc1cccc(C(F)(F)F)c1 under Potency: inconclusive: 20.6 µM [falling, single point]
Value of Clc1ccc2nc3c4ccccc4cnn3c2c1 under Potency: inconclusive: 20.6 µM [activator, partial curve]

From PubChem BioAssay AID504444 (National Center for Advancing Translational Sciences (NCATS), 2011)
